Laboratory results taken from article doi:10.1101/2021.02.19.431979.
Changes are numbered by the printed parent chain. Names may count otherwise. Results are given in words; binding and its absence hold for the method and conditions named. Binding seen in cells or lysates may run through a third protein. Some binding calls cover weakened binding; strength is not graded here. For some assays here: Sequences can lack the tags named with a protein. One block for each binder: values may come before it.

What was measured:
[1] = target: T1, Snf7^D131C (S. cerevisiae) (UniProt P39929); experiment: cross-linking
T1 sequence: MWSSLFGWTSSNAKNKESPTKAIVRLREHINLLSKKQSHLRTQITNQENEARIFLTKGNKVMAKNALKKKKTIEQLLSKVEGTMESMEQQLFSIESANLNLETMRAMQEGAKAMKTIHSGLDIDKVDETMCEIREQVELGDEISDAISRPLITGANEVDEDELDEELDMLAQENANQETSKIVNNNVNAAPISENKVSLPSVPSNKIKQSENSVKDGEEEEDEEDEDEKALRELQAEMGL

[2] = target: T2, Vps2^L113C (S. cerevisiae) (UniProt P36108); experiment: cross-linking
T2 sequence: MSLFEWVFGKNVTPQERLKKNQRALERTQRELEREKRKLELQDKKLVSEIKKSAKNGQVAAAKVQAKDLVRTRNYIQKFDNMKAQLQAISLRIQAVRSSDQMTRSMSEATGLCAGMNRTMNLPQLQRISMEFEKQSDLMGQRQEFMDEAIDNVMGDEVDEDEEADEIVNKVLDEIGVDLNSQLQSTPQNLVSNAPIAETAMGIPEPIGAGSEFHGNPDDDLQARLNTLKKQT

[3] = target: T3, Vps2^L91C (S. cerevisiae) (UniProt P36108); experiment: cross-linking
T3 sequence: T2 sequence with L91C, C113L

[4] = target: T4, Vps24-6xHis-TEV-FLAG (HTF) (S. cerevisiae) (UniProt P36095); experiment: co-IP
T4 sequence: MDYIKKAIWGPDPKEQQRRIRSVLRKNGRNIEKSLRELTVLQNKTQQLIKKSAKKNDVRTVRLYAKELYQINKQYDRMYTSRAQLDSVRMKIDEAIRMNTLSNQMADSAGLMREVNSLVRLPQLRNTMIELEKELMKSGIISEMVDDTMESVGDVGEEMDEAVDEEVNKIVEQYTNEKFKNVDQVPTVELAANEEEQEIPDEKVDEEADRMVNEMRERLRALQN

[5] = target: T5, Vps24-6xHis-TEV-FLAG (HTF) (S. cerevisiae), P36095; experiment: co-IP; details: remark: other sources report otherwise
T5 chain: T4 sequence

[6] = target: T6, Vps24^M90E-HTF (S. cerevisiae) (UniProt P36095); experiment: co-IP
T6 sequence: T4 sequence with M90E

B4: Vps2^K19C (protein, UniProt P36108 1-232)
chain: T2 sequence with K19C, C113L
binding [1]: binds

B5: Vps2^L91E (protein, UniProt P36108 1-232)
chain: T2 sequence with L91E, C113L
binding [4]: no binding

B6: Vps2, P36108 1-232 (protein)
chain: T2 sequence with C113L
binding [5]: binds

B7: Vps2 (protein, UniProt P36108 1-232)
chain: T2 sequence with C113L
binding [6]: no binding

B8: Snf7, P39929 1-240 (protein)
chain: T1 sequence with C131D
binding [5]: binds

The remaining lines, values ahead:

binding [1]: binds
B1: Vps24^R19C (protein, UniProt P36095 1-224)
chain: T4 sequence with R19C

binding [2]: binds
B2: Vps24^M90C (protein, UniProt P36095 1-224)
chain: T4 sequence with M90C

binding [3]: binds
B3: Vps24^M112C (protein, UniProt P36095 1-224)
chain: T4 sequence with M112C
